What was measured:
Assay type in all cases: biochemical
Settings in all cases: compound at 10 µM, after 2 hours (at completion of the assay); LOPAC set
TBK1 = target: T1, TBK1 (Homo sapiens, UniProt Q9UHD2); test: MCE (microfluidic capillary electrophoresis) kinase assay, phosphorylation of 5-FAM-TBK1-Tide by TBK1
T1 construct: purchased Life Technologies (Invitrogen)
T1 sequence (Q9UHD2 1-729): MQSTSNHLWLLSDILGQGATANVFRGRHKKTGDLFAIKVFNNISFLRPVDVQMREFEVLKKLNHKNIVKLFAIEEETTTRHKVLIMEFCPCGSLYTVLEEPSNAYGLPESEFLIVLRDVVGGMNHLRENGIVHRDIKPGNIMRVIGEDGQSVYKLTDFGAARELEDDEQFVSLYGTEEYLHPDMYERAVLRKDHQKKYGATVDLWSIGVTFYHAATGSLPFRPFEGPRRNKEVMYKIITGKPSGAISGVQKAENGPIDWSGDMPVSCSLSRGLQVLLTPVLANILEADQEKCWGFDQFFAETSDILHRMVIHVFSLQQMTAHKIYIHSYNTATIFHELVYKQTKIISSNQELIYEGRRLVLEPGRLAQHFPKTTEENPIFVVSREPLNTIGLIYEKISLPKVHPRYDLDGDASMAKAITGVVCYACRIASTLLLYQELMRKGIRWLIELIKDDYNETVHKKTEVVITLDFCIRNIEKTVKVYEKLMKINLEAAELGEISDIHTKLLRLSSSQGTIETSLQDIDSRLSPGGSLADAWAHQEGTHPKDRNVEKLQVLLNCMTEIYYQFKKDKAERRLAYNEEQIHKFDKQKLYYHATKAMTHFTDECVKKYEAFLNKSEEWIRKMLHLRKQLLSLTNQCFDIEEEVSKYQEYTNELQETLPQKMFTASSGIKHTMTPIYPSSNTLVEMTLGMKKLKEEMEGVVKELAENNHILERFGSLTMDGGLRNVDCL
From the text: (§1) This validated substrate specificity was then used to develop assays for TBK1 and IKKε which are compatible with HTS using microfluidic capillary electrophoresis (MCE). MCE operates on the principle that small fluorescently-labeled peptide substrates from ∼100 nanoliter sized aliquots of reaction samples are separable in a capillary channel etched in a quartz microfluidic chip ratio when a current is applied, [30]. This technique has been widely adopted as a gold standard assay in the profiling of small molecule inhibitors of kinases and can be tested in a high-throughput fashion, [32]. TBK1-Tide was synthesized with an N-terminal 5– Carboxyfluorescein (5-FAM) dye for use as a substrate. The TBK1-Tide synthesized for HTS (5-FAM-Aha-ADADYASLDWDA-NH2) retained all of the residues critical for phosphorylation by TBK1 and IKKε, but had the -1 and -4 Asp residues changed to Ala in order to decrease the likelihood of Asp isomerization. […] Because of the MCE system’s limits of detection, TBK1-Tide was fixed at a concentration of 1 µM and Km values for substrate were not determined. The enzyme concentrations were then titrated and fixed to 120 nM for TBK1 and 81 nM for IKKε. These values were chosen to give 30% conversion of substrate to product after 2 hours of incubation (data not shown).
(§2) Compounds were screened at a final concentration of 10 µM in 0.1% DMSO. […]

IKKε = target: T2, IKKε (Homo sapiens, UniProt Q14164); test: MCE kinase assay, phosphorylation of 5-FAM-TBK1-Tide by IKKε
T2 construct: purchased Life Technologies (Invitrogen)
T2 sequence (Q14164 1-716): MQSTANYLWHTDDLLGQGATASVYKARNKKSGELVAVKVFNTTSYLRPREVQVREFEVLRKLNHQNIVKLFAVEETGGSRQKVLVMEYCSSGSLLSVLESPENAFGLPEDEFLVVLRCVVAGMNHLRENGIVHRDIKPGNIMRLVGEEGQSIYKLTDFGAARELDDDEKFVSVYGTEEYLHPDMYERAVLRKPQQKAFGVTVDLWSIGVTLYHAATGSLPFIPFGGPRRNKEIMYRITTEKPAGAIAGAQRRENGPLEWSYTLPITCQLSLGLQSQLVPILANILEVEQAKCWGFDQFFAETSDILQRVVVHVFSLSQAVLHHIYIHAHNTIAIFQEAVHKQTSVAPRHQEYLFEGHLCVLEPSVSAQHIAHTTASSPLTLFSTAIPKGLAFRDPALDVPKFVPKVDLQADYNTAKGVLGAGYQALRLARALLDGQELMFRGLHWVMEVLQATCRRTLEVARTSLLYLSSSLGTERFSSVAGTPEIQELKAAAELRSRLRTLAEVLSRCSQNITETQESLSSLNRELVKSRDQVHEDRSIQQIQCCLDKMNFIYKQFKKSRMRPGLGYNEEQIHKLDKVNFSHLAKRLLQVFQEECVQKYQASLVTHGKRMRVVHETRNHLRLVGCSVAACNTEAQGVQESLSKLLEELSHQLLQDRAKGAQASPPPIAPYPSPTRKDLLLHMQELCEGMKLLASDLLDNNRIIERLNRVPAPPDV
From the text: as §1, §2

IKKα = target: T3, IKKα (Homo sapiens, UniProt O15111); test: MCE kinase assay, phosphorylation of FL-1 peptide by IKKα (secondary screen)
T3 construct: purchased Life Technologies (Invitrogen)
T3 sequence (O15111 1-745): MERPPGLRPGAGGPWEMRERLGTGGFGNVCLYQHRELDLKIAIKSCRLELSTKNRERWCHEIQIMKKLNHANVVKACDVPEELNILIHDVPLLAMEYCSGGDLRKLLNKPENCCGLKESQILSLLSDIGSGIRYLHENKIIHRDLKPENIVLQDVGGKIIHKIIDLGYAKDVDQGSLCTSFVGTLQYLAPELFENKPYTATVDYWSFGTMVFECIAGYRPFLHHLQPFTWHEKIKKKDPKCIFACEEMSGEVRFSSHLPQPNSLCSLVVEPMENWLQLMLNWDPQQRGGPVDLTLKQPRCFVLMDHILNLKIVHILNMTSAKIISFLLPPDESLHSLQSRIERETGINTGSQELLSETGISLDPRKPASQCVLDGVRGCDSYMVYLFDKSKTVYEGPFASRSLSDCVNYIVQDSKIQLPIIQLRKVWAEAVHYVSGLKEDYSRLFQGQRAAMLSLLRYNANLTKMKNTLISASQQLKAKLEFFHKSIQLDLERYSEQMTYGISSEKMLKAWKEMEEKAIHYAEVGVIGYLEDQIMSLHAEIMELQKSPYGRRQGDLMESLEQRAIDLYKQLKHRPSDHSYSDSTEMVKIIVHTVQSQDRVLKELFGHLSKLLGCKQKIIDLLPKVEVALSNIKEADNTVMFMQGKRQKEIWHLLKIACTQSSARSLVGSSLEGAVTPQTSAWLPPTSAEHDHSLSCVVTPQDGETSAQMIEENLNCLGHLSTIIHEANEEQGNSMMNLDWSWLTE
Experimental: As IKKβ and IKKα are closely related to TBK1 and IKKε, it was important to determine the specificity of any candidate inhibitors. A secondary screen was therefore performed to evaluate the ability of the top-scoring TBK1 and IKKε inhibitors to inhibit the canonical IKKs. […] Enzyme concentrations were titrated and fixed to 11.5 µM for IKKα and 1.1 µM for IKKβ and the screen was performed as described above for TBK1 and IKKε. […]
Kinase buffer contained 50 mM Tris (pH 7.5), 12 mM MgCl2, 1 mM β-glycerophosphate, 100 µM ATP, and 10 µCi γ-^32P-ATP/reaction. Reactions were incubated at 30°C for 1h. Recombinant GST-TBK1 and GST-TBK1 K38A used in the positional scanning peptide library assay were generated as described above and the assay was performed as described previously, [28]. […]

percent inhibition of TBK1 (TBK1): 91.5%
percent inhibition of IKKε (IKKε): 86%
percent inhibition of IKKα (IKKα): 12.5%
SMILES: O=C1NC(=O)C(c2ccccc2[N+](=O)[O-])=C1Nc1ccc(O)c(Cl)c1 [UNC10100541, SB 415286]
